Experimental data as given in PubChem BioAssay AID493014 (National Center for Advancing Translational Sciences (NCATS), 2011).
Some of the results follow. These are further read-outs of the screen, such as a control signal, another cell line or another target. No call is given for them. Most of these compounds were active or inconclusive in the main read-out, so they are no random draw. Potencies come from curve fits of mixed quality, noted in brackets.

Assay: qHTS Assay to Find Inhibitors of Chronic Active B-Cell Receptor Signaling
Conditions: ABC-DLBCL IkBa-CBG/CBR reporter, luminescence ratio (green luciferase fused to IkBa over red control in TMD8 lymphoma cells), 4 h
Outline: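 Cell line TMD8 (human ABC DLBCL), stably expressing tet-inducible CBG68-IkBa fusion and CBR; IMDM/0.5% FBS; cpd up to 46 uM; dox induction, 4 h, 37C/5% CO2; dual luminescence; green/red ratio; MG132 control.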

[1] = measured here: CBR red luminescence, cell number
[2] = measured here: IkBa-CBG green luminescence

| SMILES | AC50 [1] | AC50 [2] |
| --- | --- | --- |
| c1ccc(C2=NNC(=NCc3ccc4c(c3)OCO4)SC2)cc1 | 8.2 µM [falling, partial curve, poor fit] |  |
| COCCN1C(=O)C(CC(=O)Nc2ccc(C(=O)O)cc2)SC1=Nc1ccccc1 (stereo not drawn) | 0.0058 µM [falling, full curve, poor fit] |  |
| COc1ccc2c(c1)CC/C(=C/c1cc(OC)c(OC)c(OC)c1)C2=O | 17.8 µM [falling, partial curve, poor fit] |  |
| S=C(Nc1cccnc1)NC1CC2CCC1C2 (stereo not drawn) | 28.2 µM [falling, single point] |  |
| O=C(NC1CSCC1OC(=O)c1ccccc1)c1ccccc1 (stereo not drawn) | 35.5 µM [falling, single point] |  |
| O=[N+]([O-])c1ccc(N2CCN(c3ccccn3)CC2)c(Cl)c1 | 2 µM [rising, full curve, poor fit] |  |
| CC(=O)c1sc2nsc(SCCN3CCOCC3)c2c1N | 5.62 µM [rising, full curve] |  |
| CCOC(=O)c1cc(-c2ccccc2)n(CCCC(=O)Nc2ccc(C(C)C)cc2)c1C | 5.62 µM [rising, single point] |  |
| Cc1c(C)n2c(SCC(=O)N3CCCCC3)nnc2[nH]c1=O | 3.66 µM [rising, partial curve, poor fit] |  |
| Cc1ccc(CSc2nnc(SCC(=O)N/N=C/c3ccc(C(=O)O)cc3)s2)cc1 | 6.31 µM [falling, single point] |  |
| Fc1ccccc1N=C1NN=C(c2ccccc2)CS1 | 11.2 µM [falling, partial curve] |  |
| COC(=O)COc1ccc(S(=O)(=O)Nc2ccc(NC(C)=O)cc2)cc1C | 29.1 µM [rising, single point] |  |
| O=C(CCc1ccccc1F)N1CCN(c2ccccc2)CC1 | 14.1 µM [rising, partial curve, poor fit] |  |
| O=S(=O)(/C=C/c1ccccc1)N1CCc2ccccc2C1 | 35.5 µM [falling, single point] |  |
| CCCCNC(=O)N1CCOCCOCCN(C(=O)NCCCC)CCOCCOCC1 | 6.51 µM [falling, single point] | 4.61 µM [rising, partial curve, poor fit] |
| Cc1cccc(-c2noc(-c3ccc4c(c3)OCO4)n2)c1 | 17.8 µM [rising, single point] | 25.1 µM [falling, single point] |
| O=C(OCCN1CCCC1=O)c1cc(F)c(F)c(F)c1F | 29.1 µM [falling, single point] |  |
| CC(=O)Nc1cccc(NC(=O)c2ccc(COc3ccccc3)cc2)c1 | 0.316 µM [falling, full curve, poor fit] |  |
| O=C(NCc1ccc2c(c1)OCO2)Nc1ccc2nsnc2c1 | 3.16 µM [falling, full curve, poor fit] |  |
| O=C(O)c1ccc(NC(=O)c2cn(-c3ccccc3)nc2-c2ccc(Cl)cc2)cc1 | 11.2 µM [falling, partial curve, poor fit] |  |
| Nc1nc(NCCc2ccccc2)nc(NCCO)c1[N+](=O)[O-] | 14.1 µM [rising, partial curve] |  |

| SMILES | AC50 [1] | AC50 [2] |
| --- | --- | --- |
| Cn1c(Cn2nnc3ccccc32)nnc1SCC(=O)N1c2ccccc2Sc2ccccc21 | 35.5 µM [falling, single point] |  |
| CCSc1nnc2ccc(-c3ccc(OC)c(OC)c3)nn12 |  | 3.55 µM [falling, partial curve] |
| O=S(=O)(c1cccc2cccnc12)N1CCOCC1 | 0.58 µM [falling, full curve, poor fit] |  |
| C=CCCC(=O)Nc1nc(C)c(-c2csc(Nc3ccccc3OC)n2)s1 | 35.5 µM [falling, single point] |  |
| COc1cc(/C=N\NC(=O)c2ccc(C)nc2)ccc1OC(=O)c1ccco1 | 9.2 µM [falling, partial curve, poor fit] |  |
| CCOC(=O)C1CCN(C(=O)COC(=O)c2oc3ccccc3c2C)CC1 | 3.26 µM [rising, partial curve, poor fit] |  |
| O=C(Nc1cccc([N+](=O)[O-])c1)c1cc(S(=O)(=O)Nc2ccccn2)ccc1Cl | 11.2 µM [rising, single point] |  |
| O=C(O)CCCCCN1C(=O)/C(=C\c2ccncc2)SC1=S | 0.82 µM [falling, full curve] |  |
| O=C(NCc1ccco1)c1cccc(-c2nnc(-c3ccccc3)o2)c1 | 6.51 µM [falling, partial curve] |  |
| NC(=S)N=Nc1c(O)n(CCCl)c2ccccc12 | 15.8 µM [falling, single point] | 12.6 µM [falling, partial curve] |
| CCOC(=O)N1CCC(N2C(=O)c3ccccc3C2Nc2cc(Cl)c(OC)cc2OC)CC1 (stereo not drawn) | 3.66 µM [rising, single point] |  |
| O=C(NNc1c(Cl)cc(Cl)cc1Cl)c1cccc([N+](=O)[O-])c1 | 16.4 µM [rising, partial curve, poor fit] |  |
| CCCCCNC(=O)c1cc(S(=O)(=O)N2CCCC2)ccc1F | 25.9 µM [rising, single point] |  |
| COc1cccc(CN2C(=O)C(C)N(C(=O)c3c(F)cccc3F)c3ccccc32)c1 (stereo not drawn) | 12.6 µM [falling, partial curve] |  |
| O=C(O)COc1ccccc1C1C2C(=O)N(c3ccccc3)C(=O)C2ON1c1ccccc1 (stereo not drawn) | 2.24 µM [falling, partial curve, poor fit] |  |
| CC(C)Cn1cc(C(=O)NCCCN2CCCC2=O)c2c3ccccc3n(C)c2c1=O | 6.51 µM [rising, single point] |  |
| O=C(COC(=O)c1ccccc1)c1ccc(Br)cc1 | 35.5 µM [falling, single point] |  |
| Cc1nc2nc(-c3ccco3)[nH]n2c(=O)c1C | 1.64 µM [falling, partial curve, poor fit] |  |
| CCn1cc(Br)c(C(=O)Nc2ccc(Cl)cc2Cl)n1 | 3.66 µM [rising, full curve, poor fit] |  |
| CC(SCc1ccccc1)C(=O)Nc1ccc(F)cc1 (stereo not drawn) | 17.8 µM [falling, partial curve, poor fit] |  |
| COC(=O)COc1ccc(S(=O)(=O)Nc2ccccc2C(=O)OC)cc1 | 6.51 µM [rising, single point] |  |

By substructure: the entries above containing an NH in an aromatic ring

| SMILES | AC50 [1] | AC50 [2] |
| --- | --- | --- |
| Cc1c(C)n2c(SCC(=O)N3CCCCC3)nnc2[nH]c1=O | 3.66 µM [rising, partial curve, poor fit] |  |
| Cc1nc2nc(-c3ccco3)[nH]n2c(=O)c1C | 1.64 µM [falling, partial curve, poor fit] |  |

(next part)

| SMILES | AC50 [1] | AC50 [2] |
| --- | --- | --- |
| CCc1cccc2c1NC1(CCCC1)CC2C (stereo not drawn) | 12.6 µM [falling, partial curve, poor fit] |  |
| O/C(=C\c1ccc2ccccc2n1)c1ccncc1 | 23.1 µM [falling, single point] |  |
| C=CCNC(=O)C(=O)NN=C1CCN(C)CC1 | 16.4 µM [rising, partial curve, poor fit] |  |
| O=C(Nc1ccc2c(c1)OCCO2)c1cccc(Br)c1 | 22.4 µM [falling, single point] |  |
| COc1ccc(-n2ncc3c(NCc4ccc5c(c4)OCO5)ncnc32)cc1 | 3.66 µM [falling, partial curve, poor fit] |  |
| CCc1ccccc1NC(=O)CNC(=O)c1n[nH]c(=O)c2ccccc12 | 16.4 µM [falling, partial curve, poor fit] |  |
| C=CCn1c(SCC(=O)NCCCC)nc2scc(-c3ccco3)c2c1=O | 18.4 µM [falling, single point] | 23.1 µM [rising, single point] |
| CN(C)c1ccc(Nc2nc(-c3cccnc3)cs2)cc1 | 0.355 µM [rising, partial curve, poor fit] |  |
| CN(C)S(=O)(=O)c1ccc(Cl)c(C(=O)Nc2nc3ccccc3[nH]2)c1 | 15.8 µM [falling, single point] |  |
| CCc1nnc(NC(=O)c2ccc(OC)cc2)s1 | 11.2 µM [falling, partial curve, poor fit] |  |
| CC1=NN(C(=O)CSCc2ccccc2)C(O)(c2ccc(Cl)cc2)C1 (stereo not drawn) | 15.8 µM [falling, partial curve, poor fit] |  |
| COc1cc(/C=C/C(=O)OCC(=O)NC(=O)NC(C)(C)C)ccc1O | 11.2 µM [falling, single point] |  |
| CCC(CCC(=O)Nc1cccc([N+](=O)[O-])c1)C(=O)O (stereo not drawn) | 0.355 µM [rising, full curve, poor fit] |  |
| CC(C)(C)NC(=O)C(c1cccs1)N(Cc1ccc(F)cc1)C(=O)c1csnn1 (stereo not drawn) | 7.08 µM [falling, full curve] |  |
| N#Cc1ccccc1/C=N/Nc1nc(-c2ccccc2)c2cc(Br)ccc2n1 | 6.31 µM [falling, partial curve, poor fit] |  |
| COc1ccc(C(=O)Nc2ccccc2C(=O)N/N=C/c2ccccc2OC)cc1 | 5.62 µM [falling, partial curve] |  |
| CN1Cc2c(N3CCOCC3)nc(SCc3ccccc3)c(C#N)c2CC1(C)C | 35.5 µM [falling, single point] |  |
| CC(=O)Nc1cccc(NC(=O)CN2c3cccc4cccc(c34)S2(=O)=O)c1 | 20.6 µM [rising, partial curve, poor fit] | 16.4 µM [falling, single point] |
| COc1ccc(/C=N/NC(=O)c2ccc(CSc3nc(C)cc(C)n3)cc2)cc1O |  | 20.6 µM [falling, single point] |
| COC(=O)c1ccccc1NC(=O)Cc1nc(-c2ccccc2)sc1-c1ccc(C)cc1 | 0.00651 µM [rising, full curve, poor fit] |  |
| COC(=O)c1ccc(CSc2cc(C)c3ccccc3n2)o1 | 35.5 µM [falling, single point] |  |
